Cell number change and AC50 data for 59 compounds are collected here from PubChem BioAssay AID2685 (National Center for Advancing Translational Sciences (NCATS), 2010).

A short description of this experiment: qHTS Assay for Lipid Storage Modulators in Drosophila S3 Cells.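 On Cell number change: cells counted by Cell Tracker Red CMTPX staining in the red channel.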 As to conditions: BODIPY lipid droplet fluorescence, 18-24 h; for cell number change: measured here: cell count max response, cells fed with added oleic acid. In a few lines:
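Drosophila S3 cells got compounds at several concentrations plus oleic acid (400 uM solution). Laser-scanning cytometry with 488 nm excitation read lipid droplets at 500-530 nm and cells at 575-640 nm. Percent activity was relative to 20 uM Triacsin C.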
(qHTS replaces the single test concentration by a dilution series.)

The mark [1] stands for this setting: measured here: lipid fluorescence (Fed channel) AC50, cells fed with added oleic acid.
Setting [2] is: measured here: cell number channel AC50, cells fed with added oleic acid.

The list shows a part of the results. These are further read-outs of the screen, such as a control signal, another cell line or another target. No call is given for them. The list favours compounds with an active or inconclusive main result. Words in brackets tell the shape of the fitted curve; partial curves, single points and poor fits give uncertain potencies.

For `O=C(O)CC(NCc1ccco1)C(=O)OCCc1ccccc1` (stereo not given), the cell number change worked out at 16.1%.
As for `CC1=CC(C)(C)NC(=S)N1c1ccccc1`, the cell number change was found to be 11.5%. Further, the AC50 (in general, the midpoint of the concentration-response curve, whichever way the signal moves) under setting [1] was 2.06 µM [falling, full curve].
Regarding `COc1cc(-c2nnc(-c3cccs3)o2)cc(OC)c1OC`, the cell number change came out at 28.2%. Besides, the concentration at half-maximal activity (AC50) under setting [1] is 1.3 µM [rising, partial curve].
For `COC1=C(Nc2ccccc2OC)C(=O)c2ccccc2C1=O`, the cell number change was -52.4%. For the same compound, the AC50 under setting [2] is 29.1 µM [falling, single point]. Besides, the half-maximal activity concentration (AC50) under setting [1] is 29.1 µM [falling, single point].
As for `O=C(Cc1ccc(Cl)cc1)NC1CCS(=O)(=O)C1` (stereo not given), the cell number change came out at 0.829%. Besides, the AC50 under setting [1] is 20.6 µM [rising, single point].
As to `O=C(c1cnn(-c2ccc(Cl)cc2)c1)c1ccccc1O`, the cell number change was 55.5%.
Turning to `COc1cc(C)ccc1OCCCOc1c(Cl)cccc1Cl`, the cell number change was 1.32%. Further, the concentration at half-maximal activity (AC50) under setting [1] is 0.92 µM [rising, full curve, poor fit].
Consider `CC(=O)C1=C(O)C(=O)N(CCc2c[nH]c3ccccc23)C1c1cccc(O)c1` (stereo not given), for which the concentration at half-maximal activity (AC50) under setting [1] was 23.1 µM [falling, partial curve].
As for `O=C(COc1ccccc1F)Nc1c2c(nn1-c1ccccc1)CS(=O)(=O)C2`, the cell number change is 28.2%. The AC50 under setting [2] is 2.31 µM [rising, single point]. Moreover, the half-maximal activity concentration (AC50) under setting [1] is 16.4 µM [rising, partial curve, poor fit].
On to `COC(=O)c1cccc(Cn2nnc3ccccc3c2=O)c1`, for which the AC50 runs as follows: under setting [2], 0.326 µM [rising, partial curve]; under setting [1], 0.103 µM [rising, full curve, poor fit].
In the case of `CCCCOC(=O)C1[C@H]2C(=O)N(c3ccccc3CC)C[C@]23C=C[C@H]1O3` (stereo not given in full), the cell number change turned out to be 1.37%.
As to `CC(C)Cn1c(-c2cccnc2)nc2c1c(=O)[nH]c(=O)n2CC(C)C`, the cell number change is 24.1%. Besides, under setting [1], the AC50 is 29.1 µM [rising, single point].
Take `CC(=O)c1ccc(N2CCN(C(=O)c3ccc4c(=O)n(-c5ccccc5)c(=O)[nH]c4c3)CC2)cc1`: the cell number change is -18.3%. Further, the AC50 under setting [2] was 0.103 µM [falling, full curve, poor fit].
As to `CCOC(=O)Cc1nnc(NC(=O)CC)s1`, the cell number change came out at 31.6%. In addition, the AC50 under setting [2] was 7.31 µM [rising, partial curve]. Further, the AC50 under setting [1] is 6.51 µM [rising, single point].
In the case of `O=P(Cc1cc(Br)cc(Br)c1OCCO)(c1ccccc1)c1ccccc1`, the cell number change was 26.8%. The AC50 under setting [2] was 0.092 µM [rising, full curve, poor fit].
In the case of `CCOc1ccc(NC(=O)N2CCC(C(=O)c3ccc(F)cc3)CC2)cc1`, the cell number change was -46.4%. Moreover, the AC50 under setting [2] is 32.6 µM [falling, single point]. For the same compound, the concentration at half-maximal activity (AC50) under setting [1] is 20.6 µM [falling, single point].
Regarding `Cc1cc2oc(=O)cc(CSc3nc(N)cc(N)n3)c2cc1C(C)C`, the cell number change is 13.2%. The AC50 under setting [2] was 0.092 µM [rising, full curve, poor fit]. For the same compound, under setting [1], the half-maximal activity concentration (AC50) was 0.82 µM [rising, full curve, poor fit].
Consider `O=C(COC(=O)c1ccc(Br)cc1)NCCc1ccccc1`, for which the cell number change is -20.8%. Under setting [2], the half-maximal activity concentration (AC50) is 0.651 µM [falling, full curve]. In addition, the AC50 under setting [1] was 0.13 µM [falling, full curve, poor fit].
In the case of `Cc1cc(C)cc(-n2ncc3c2CCCC3NC(=O)c2ccccc2N2CCOCC2)c1` (stereo not given), the cell number change was -30.6%. Further, the concentration at half-maximal activity (AC50) under setting [2] was 1.84 µM [falling, partial curve, poor fit]. Besides, under setting [1], the AC50 was 4.61 µM [falling, full curve].
Take `COc1cccc(CNS(=O)(=O)c2ccc3c(c2)N(C(C)=O)CCO3)c1`: the cell number change is -0.597%. In addition, the AC50 under setting [1] was 2.31 µM [rising, single point].
With `CCCCn1nc(C(=O)NCC(c2cccs2)N2CCOCC2)c2ccccc2c1=O` (stereo not given), the cell number change was -50.9%. Moreover, the half-maximal activity concentration (AC50) under setting [2] was 20.6 µM [falling, partial curve]. The concentration at half-maximal activity (AC50) under setting [1] is 0.651 µM [falling, partial curve, poor fit].
On to `Cc1ccc(-n2c(COc3c(C)cccc3C)nnc2SCC(=O)Nc2nccs2)cc1`, for which the cell number change came out at 54.3%. Besides, under setting [2], the AC50 was 0.411 µM [rising, full curve]. The AC50 under setting [1] was 0.92 µM [rising, partial curve].
Take `Cc1ccc(Cl)c(OCC(=O)NCC(c2cccs2)N2CCOCC2)c1` (stereo not given): the cell number change was 63.7%. For the same compound, under setting [2], the half-maximal activity concentration (AC50) was 7.31 µM [rising, partial curve]. Also, the half-maximal activity concentration (AC50) under setting [1] was 8.2 µM [rising, partial curve].
`CC(C)n1c(=O)n(CC(=O)NCC2CCCO2)c(=O)c2c3c(sc21)COC(C)(C)C3` (stereo not given): the cell number change turned out to be 28.7%. Moreover, under setting [1], the AC50 was 29.1 µM [rising, single point].
As to `CCc1ccccc1NC(=O)c1cccc(NC(=O)/C=C/c2ccco2)c1`, the cell number change is -4.94%. Further, the AC50 under setting [1] was 13 µM [falling, partial curve, poor fit].
Turning to `O=C(/C=C/c1ccco1)NCC1COc2ccccc2O1` (stereo not given), the cell number change was determined as 6.55%. Also, the AC50 under setting [1] was 29.1 µM [falling, single point].
Turning to `CN(C)S(=O)(=O)c1ccc(N2CCCC2)c(C(=O)N2CCN(S(=O)(=O)c3ccccc3F)CC2)c1`, the cell number change was found to be 24.5%.
Consider `C/C(N)=C(/C#N)C(=O)COC(=O)c1cc(-c2ccccc2)nc2ccc(Br)cc12`, for which the cell number change was found to be 63.1%. In addition, the AC50 under setting [2] was 18.4 µM [rising, partial curve].
In the case of `Cc1ccnc(NC(=O)c2cc(-c3ccc(Cl)s3)nc3ccccc23)c1`, the AC50 under setting [2] is 2.91 µM [rising, partial curve].
For the compound `Cc1ccc(OCC(=O)NNC(=O)c2ccco2)c(C)c1`, the cell number change was found to be 11%.
Regarding `Cc1ccc(Nc2ccc(S(=O)(=O)N3CCOCC3)cc2[N+](=O)[O-])cc1C`, the cell number change is -48.9%. In addition, the AC50 under setting [2] is 25.9 µM [falling, single point].
With `O=C(Nc1ccc2oc(-c3ccccc3)nc2c1)c1ccc2c(c1)OCCO2`, the cell number change came out at 6.94%. For the same compound, under setting [1], the concentration at half-maximal activity (AC50) is 0.461 µM [rising, full curve, poor fit].
Regarding `Cc1cccc(N2C(=S)N=C(Nc3c(C)cccc3C)C23CCOC(C)(C)C3)c1` (stereo not given), the cell number change is 33.2%. In addition, under setting [2], the concentration at half-maximal activity (AC50) was 32.6 µM [rising, single point]. Also, under setting [1], the AC50 is 6.51 µM [falling, single point].
With `COc1cc(CNCc2cc(OC)ccc2OC)cc(OC)c1`, the cell number change was 15.8%. Moreover, the half-maximal activity concentration (AC50) under setting [1] was 29.1 µM [rising, single point].
`O=C(COc1ccccc1)NCC(c1ccco1)N1CCN(c2ccc(F)cc2)CC1` (stereo not given): the cell number change was 45.3%. The AC50 under setting [2] is 5.8 µM [rising, full curve, poor fit]. For the same compound, under setting [1], the half-maximal activity concentration (AC50) was 5.8 µM [rising, single point].
Turning to `Cc1cc(C)n(CC(O)COc2ccc(Cl)cc2Cl)n1` (stereo not given), the cell number change turned out to be 3.24%. In addition, under setting [1], the AC50 was 29.1 µM [rising, single point].
In the case of `Cc1ccc(NC(=O)c2nccnc2C(=O)O)cc1C`, the cell number change is -39.4%. The AC50 under setting [2] was 36.6 µM [falling, partial curve, poor fit]. Besides, the AC50 under setting [1] was 3.66 µM [falling, partial curve].
Turning to `Cc1ccc(S(=O)(=O)NC(=O)Nc2cc(C)on2)cc1`, the cell number change stood at 36.9%. Further, under setting [2], the AC50 is 1.46 µM [falling, partial curve].
On to `O=C(O)c1ccc2c(c1)ncn2C1CCCCC1`, for which the cell number change is -30.2%. Besides, the AC50 under setting [2] is 0.731 µM [falling, full curve]. In addition, the AC50 under setting [1] is 0.731 µM [falling, full curve].
As to `CCCCNC(=O)C(=O)N/N=C/c1cccc(Br)c1`, the cell number change stood at 20.5%.
Consider `Cc1ccc(CN2C(=O)C(C)Nc3ncnc(N4CCOCC4)c32)cc1` (stereo not given), for which the cell number change was -24.6%. Moreover, the half-maximal activity concentration (AC50) under setting [1] is 1.84 µM [falling, partial curve, poor fit].
For the compound `O=C(O)c1ccccc1OCCOc1ccccc1C(=O)O`, the cell number change is -188%. Also, the half-maximal activity concentration (AC50) under setting [2] was 0.116 µM [falling, full curve, poor fit]. Moreover, under setting [1], the concentration at half-maximal activity (AC50) is 5.8 µM [falling, partial curve].
For `CC(=O)c1ccc(OCC(=O)c2cc(C)n(-c3ccc4c(c3)OCO4)c2C)cc1`, the cell number change was -7.38%. In addition, the AC50 under setting [1] was 8.2 µM [rising, partial curve].
In the case of `c1ccc(COc2ccccc2CNCc2cccnc2)cc1`, the concentration at half-maximal activity (AC50) under setting [2] is 6.51 µM [rising, single point].
Regarding `COc1ccc(-c2cc(C(=O)Nc3cccnc3Cl)no2)cc1`, the cell number change was 40.2%. Besides, the concentration at half-maximal activity (AC50) under setting [2] was 36.6 µM [rising, partial curve, poor fit].
As for `CCN1C(Nc2ccccc2)=NC[C@@H]1CC(C)C`, the cell number change worked out at 15%.
In the case of `CCC(C)N(C(=O)Cn1nnc(-c2ccc(Cl)cc2)n1)C1CCS(=O)(=O)C1` (stereo not given), the cell number change was -8.44%.
`COc1ccccc1N1C(=O)C2C(C(=O)c3ccccc3)=NN(c3ccc(C)cc3)C2C1=O` (stereo not given): the cell number change is -5.23%. For the same compound, under setting [1], the AC50 was 0.146 µM [falling, full curve, poor fit].
As to `O=C(CCN1CCCCO1)N1CCCC(Nc2ccc(F)c(F)c2)C1` (stereo not given), the cell number change is -16.1%. For the same compound, the concentration at half-maximal activity (AC50) under setting [1] is 0.116 µM [falling, full curve].
For the compound `NC(=S)Cc1ccc(Cl)cc1Cl`, the cell number change stood at 12.5%. For the same compound, the AC50 under setting [1] is 2.31 µM [rising, single point].
Take `COCCN1CSC(=S)N(Cc2ccco2)C1`: the cell number change was -19.7%.
As for `NC(=O)C1CCN(Cc2nc(-c3cccs3)no2)CC1`, the cell number change is -28.3%. Further, under setting [2], the AC50 is 0.0058 µM [falling, full curve, poor fit]. For the same compound, the concentration at half-maximal activity (AC50) under setting [1] was 0.731 µM [falling, full curve].
Take `NC(=O)C(=O)N/N=C/c1c(F)c(F)c(F)c(F)c1F`: the cell number change is -1.19%. The AC50 under setting [2] is 6.51 µM [rising, single point]. The AC50 under setting [1] was 8.2 µM [falling, partial curve].
For the compound `COc1ccc(Nc2nnc(-c3ccc(C(=O)NCCO)cc3)c3ccccc23)cc1`, the cell number change was -33.4%.
Take `COc1ccc(CCNC(=O)COC(=O)c2ccc(Br)o2)cc1`: the cell number change came to 10.4%.
`Cc1cc2c(c(=O)n1Cc1ccccn1)C(c1ccc3c(c1)OCO3)C(C#N)=C(N)O2` (stereo not given): the cell number change is -11.1%. In addition, under setting [1], the AC50 is 0.259 µM [rising, full curve].
For `CC(C)(C)c1cc(NC(=O)CSc2nncs2)n(-c2ccccc2)n1`, the cell number change was found to be 17.7%.
Regarding `Cc1ccc(S(=O)(=O)N2CCN(CC(O)c3ccccc3)CC2)cc1` (stereo not given), the cell number change was -111%. The concentration at half-maximal activity (AC50) under setting [2] was 23.1 µM [falling, single point].
For `N#CC(C(=O)c1ccc(S(=O)(=O)N2CCCCCC2)cc1)c1nc2ccccc2[nH]1` (stereo not given), the cell number change is -30.1%. The AC50 under setting [2] was 29.1 µM [falling, single point].
